Data as given in PubChem BioAssay AID602196 (INSERM, 2012).
Aim: 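Genes whose knock-down alters cisplatin killing of lung cancer cells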. Cell system: human A549 lung cancer cells. Reagent: siRNA pair against human genes. Duration: 48 h transfection before cisplatin; time from cisplatin to read-out not stated. Conditions: cisplatin at a dose killing half of control-siRNA cells; exact dose and duration not given. Detection: 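Cisplatin cell death as a shift from the 50% death seen with control siRNA; siRNAs toxic or growth-blocking alone scored 0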. Reading the numbers: two-siRNA summed score (-2 to +2): higher = both siRNAs protect from cisplatin killing; -2 means both sensitise; mean protection from cisplatin (shift in death): higher = protection from cisplatin killing. Hit rule: 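Each siRNA scores 0 if harmful alone by LDH or WST-1, otherwise +1 if it reduces and -1 if it increases cisplatin killing; a gene is active when both siRNAs agree (sum +2 or -2)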. Calls: active = both siRNAs shift cisplatin killing the same way; inactive = no consistent shift, or siRNA harmful alone.
In all, the deposit lists about 23,000 reagents; this is a part drawn at random. In the full data, 455 (2%) were called active. 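Active includes both protection and sensitisation; some change values fall well beyond the stated -50 to +50 range.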 Further read-outs or replicates are left out here. Not given: the amount of reagent.

{"Gene": "LINC01123", "two-siRNA summed score (-2 to +2)": 0, "mean protection from cisplatin (shift in death) (%)": 7.2, "outcome": "inactive"}
{"Gene": "CYP11B2", "two-siRNA summed score (-2 to +2)": -1, "mean protection from cisplatin (shift in death) (%)": -23.7, "outcome": "inactive"}
{"Gene": "CTPS2", "two-siRNA summed score (-2 to +2)": 0, "mean protection from cisplatin (shift in death) (%)": 9, "outcome": "inactive"}
{"Gene": "LOC440703", "two-siRNA summed score (-2 to +2)": 1, "mean protection from cisplatin (shift in death) (%)": 15.5, "outcome": "inactive"}
{"Gene": "WIPI2", "two-siRNA summed score (-2 to +2)": 1, "mean protection from cisplatin (shift in death) (%)": 0.8, "outcome": "inactive"}
{"Gene": "ATG7", "two-siRNA summed score (-2 to +2)": 0, "mean protection from cisplatin (shift in death) (%)": 7.3, "outcome": "inactive"}
{"Gene": "MTX1", "two-siRNA summed score (-2 to +2)": 1, "mean protection from cisplatin (shift in death) (%)": 2.3, "outcome": "inactive"}
{"Gene": "LOC285346", "two-siRNA summed score (-2 to +2)": 0, "mean protection from cisplatin (shift in death) (%)": 0.2, "outcome": "inactive"}
{"Gene": "CD28", "two-siRNA summed score (-2 to +2)": 0, "mean protection from cisplatin (shift in death) (%)": 8.4, "outcome": "inactive"}

Continued; the last 3 above are carried over.
{"Gene": "MTX1", "two-siRNA summed score (-2 to +2)": 1, "mean protection from cisplatin (shift in death) (%)": 2.3, "outcome": "inactive"}
{"Gene": "LOC285346", "two-siRNA summed score (-2 to +2)": 0, "mean protection from cisplatin (shift in death) (%)": 0.2, "outcome": "inactive"}
{"Gene": "CD28", "two-siRNA summed score (-2 to +2)": 0, "mean protection from cisplatin (shift in death) (%)": 8.4, "outcome": "inactive"}
{"Gene": "LOC400201", "two-siRNA summed score (-2 to +2)": 0, "mean protection from cisplatin (shift in death) (%)": -5.1, "outcome": "inactive"}
{"Gene": "ASIC5", "two-siRNA summed score (-2 to +2)": 0, "mean protection from cisplatin (shift in death) (%)": -17, "outcome": "inactive"}
{"Gene": "SGMS1", "two-siRNA summed score (-2 to +2)": -1, "mean protection from cisplatin (shift in death) (%)": -7, "outcome": "inactive"}
{"Gene": "LOC440701", "two-siRNA summed score (-2 to +2)": 1, "mean protection from cisplatin (shift in death) (%)": 6.1, "outcome": "inactive"}
{"Gene": "SLITRK3", "two-siRNA summed score (-2 to +2)": 0, "mean protection from cisplatin (shift in death) (%)": -3, "outcome": "inactive"}
{"Gene": "LOC401295", "two-siRNA summed score (-2 to +2)": 0, "mean protection from cisplatin (shift in death) (%)": 5.6, "outcome": "inactive"}
{"Gene": "FBXL13", "two-siRNA summed score (-2 to +2)": -1, "mean protection from cisplatin (shift in death) (%)": 2.2, "outcome": "inactive"}
{"Gene": "DAGLB", "two-siRNA summed score (-2 to +2)": -1, "mean protection from cisplatin (shift in death) (%)": 4.7, "outcome": "inactive"}
{"Gene": "INTS3", "two-siRNA summed score (-2 to +2)": 0, "mean protection from cisplatin (shift in death) (%)": -5.8, "outcome": "inactive"}
{"Gene": "LOC441453", "two-siRNA summed score (-2 to +2)": -1, "mean protection from cisplatin (shift in death) (%)": -0.6, "outcome": "inactive"}
{"Gene": "MAGEL2", "two-siRNA summed score (-2 to +2)": 0, "mean protection from cisplatin (shift in death) (%)": -4.3, "outcome": "inactive"}
{"Gene": "CDH6", "two-siRNA summed score (-2 to +2)": 1, "mean protection from cisplatin (shift in death) (%)": 17.6, "outcome": "inactive"}
